# In PubChem BioAssay AID1347423 (Functional Genomics Laboratory (NCATS/FGL), 2020):
# The whole screen tested about 52,000 sequences, of which about 210 (0.4%) were called active.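 How the source made its calls: active means gene whose silencing raises cell survival under the drug, median off-target-corrected z-score across its silencing RNAs 2 or more; inactive means the rest.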 The list shows a part of the results.
# Assay: Resistance to Poly (ADP-Ribose) Polymerase inhibitor: Gene Identification via Genome-wide siRNA Screen
# Conditions: mouse BRCA2 R2336H ES cells, olaparib, CellTiter-Glo viability; active compounds read high
# Procedure, shortened: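 Genome-wide siRNA screen (3 siRNAs/gene, 20 nM) in mouse ES cells carrying hypomorphic BRCA2 R2336H; olaparib 500 nM added 48 h post-transfection, CellTiter-Glo viability 72 h later. Normalized to plate-median negative control; MAD z-scores, gene median, seed-adjusted.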
row,Sequence,z-score
1,GGCAAAUACUUCACAUUAUTT against 9430034D17Rik,inactive: 0.099
2,GGAUUCUUUGGUCUAUUUCTT against 1700121L12Rik,inactive: -0.447
3,CGAAAAUAGUGAGGAUUAUTT against S100a18,inactive: 1.76
4,CCUUUAGCCCUCAAUAUUCTT against 2900006F19Rik,inactive: 0.402
5,CCUUCGAUAAAUCUCAAAUTT against Stambp,inactive: 0.529
6,GCAAUAGACCGUUAAUGGATT against Tslp,inactive: -0.183
7,GCGCGUCAUAAAAAGCAUATT against Lhx6,inactive: 1.08
8,CGACCUACUCUACAGCAAATT against B830045N13Rik,inactive: 1.09
9,GGAGCAGAAAGAAAUUUCCTT against Gpa33,inactive: 0.732
10,CCAUAUGUGAGACAACACATT against Tas2r136,inactive: 0.982
11,GCUAGCAAUUAAAAGAUCGTT against Ppp2r2c,inactive: 0.583
12,GGUAUGAAUCUGGAGAUCATT against Por,inactive: 1.44
13,GCUGCCACUGGACACAUAATT against 4930591A17Rik,inactive: -2.54
14,GGUGUUUGCCGAGUGACUGTT against B930090D16Rik,inactive: -0.567
15,GGUUUCAGAGCUAAACCCUTT against D13Wsu64e,inactive: 0.671
16,GGAGUAUUGUUUUAAACCCTT against 4921511F01Rik,inactive: 0.69
17,CCAAAUGUAGCGGAACUGATT against Rsu1,inactive: -1.37
18,GCUAUGGGAUAUGAGCUGATT against BC008155,inactive: -0.679
19,GGUACCUGUUUGUUUUACATT against Epb4.1l4b,inactive: 5.02
20,AGGUGUCUACUUUCCAGCCTT against BC019537,inactive: 0.481
21,CGACAAGAAAACAUACUAGTT against 2810037C03Rik,inactive: -1.72
22,CGAUGUGACUGGUUUAAGGTT against Wtap,inactive: 0.64
23,CCUCAAGGCACUAAUAGAATT against Car7,inactive: -1.15
24,GCUGUUUGAUAAAACAAGATT against Snx6,inactive: -0.14
25,GGAGUUUAAUUACCAAACATT against 2700050L05Rik,inactive: 1.16
26,GGCUCGUGAGCAUUCACUGTT against Nfrkb,inactive: -1.31

row,Sequence,z-score
1,GUGUCCUGAACCUUGUCCCTT against Sprr2g,inactive: -0.601
2,CGUAAGAUCAACGAGAGAUTT against D15Ertd785e,inactive: -0.708
3,GGUACAAUGUUCAUACCAATT against Rab9b,inactive: -0.746
4,GGGAGUCCUACGCAUAUGATT against BC051665,inactive: -0.549
5,GCAGCACACUUGGUACAUCTT against Icmt,inactive: 1.24
6,UGGUGCUGCUAUCUAUACCTT against Olfr330,inactive: -0.511
7,GGAGAGUGUCCUUUCAAAUTT against 6330416L07Rik,inactive: 0.369
8,GGUGACUGUCCUAUGAUAUTT against Crip2,inactive: 0.212
9,GGCCUGUACGGAGAUCAAUTT against Dpp7,inactive: -0.0689
10,CCUGUUUUAUGCCACAAUUTT against Tas2r125,inactive: -0.0101
11,CCUAUUGUCCUGCUAACAATT against Aldh7a1,inactive: -0.901
12,GGGACACUGUGUCCCUUCUTT against Kua,inactive: 0.0634
13,GAAGACCAAGCUUUGUACUTT against Olfr339,inactive: -0.17
14,GGUCAGAAAAGUAUGUUGGTT against Birc1e,inactive: -0.467
15,CCUAAAUUUGAGGUAACCUTT against Zfp295,inactive: -0.524
16,GCCUCUAUCUGUACUCUGGTT against Pdk2,inactive: 1.23
17,GGAAGAGGAGAAUGUCUUGTT against Traip,inactive: -1.26
18,GGAAAAGGAAUGUGAAUACTT against Celsr2,inactive: -1.43
19,CGCAAGAAUCUCCUUUAAUTT against BC029103,inactive: -0.136
20,CGUAUUAUUGUCAUGCUGUTT against Gpr142,inactive: 1.33
21,GCUGUGUGAAUACCACUUUTT against Cd2bp2,inactive: -0.94
22,GCACUUCCACGUGUGGAUUTT against Olfr648,inactive: -0.545
23,GGGCUAAAUUAAGCUUCUATT against A630014H24Rik,inactive: -0.213
24,GCCAACCUACUGAGUCUCATT against 2700094L05Rik,inactive: -0.328
25,GCUUGAUGAGAAAUCAACUTT against Mtap2,inactive: 0.397
26,GGAGCAGAUUAAGUGCCUGTT against Krt2-20,inactive: 0.0414

row,Sequence,z-score
1,GGAUUAAGUUGUCAUCAUUTT against Pftk1,inactive: 1.03
2,CCAAGAAGAUUAGAGACAGTT against Olfr591,inactive: 1.24
3,GGAAAGUCAGCCUUUAGCATT against Prdx3,inactive: 0.338
4,GGAGGGAGUAUCCAUGUCATT against Nr2c2,inactive: 0.295
5,CCCUGACAUUUGGAAUGUUTT against 2410116G06Rik,inactive: -1.48
6,GCAGAAACGAUUGUACCAUTT against Ar,inactive: -0.502
7,GGAUCAUUAAGACCCAGCATT against 1210002B07Rik,inactive: -2.42
8,GGAUGGCUUGUUUGGACAGTT against Ptprn,inactive: -0.81
9,GGCUUUGAGAUAUGAACAGTT against Arrdc2,inactive: -0.0907
10,GGGACUGCAUACUUAAGUUTT against Amacr,inactive: 0.149
11,GGUUAUGGUAUUAACAGGUTT against 9130214H05Rik,inactive: 0.0412
12,GGUUUAGUGAAAAACUGCUTT against Hmga2,inactive: 0.144
13,CCUGGUCAUUAGGCUAGGATT against Ecgf1,inactive: 1.35
14,GGUUUUUUGAGCAUGGGUUTT against Alk,inactive: -0.498
15,GAGUCCCUUGGCAGCUCAUTT against Klra8,inactive: -0.753
16,GGAGGUACCACGAAUCCUUTT against Gm609,inactive: 2.06
17,GGAAAUGAAGAAAAGUGACTT against Stk32a,inactive: -0.395
18,CGUAUAUGUAUGCUACAUATT against 1500001H12Rik,inactive: -0.483
19,GGAAAUCAGAGCUGAGUUATT against Ankrd6,inactive: 1.89
20,GGGAGGUUAAAAUUGGCUATT against 6030405A18,inactive: -0.149
21,GGAUACUGUAAGGAAUAAUTT against Orc4l,inactive: -1.28
22,GGUGUCAGUAUUUCCUUCATT against C530005A01Rik,inactive: 0.051
23,CGAUCUACAAGGACACCGATT against Taf1c,inactive: 0.113
24,GAAGCUUGUAGUGACUGCCTT against V1rc22,inactive: 1.22
25,GGAAAAAGAGAAUUCGAUATT against Wee1,inactive: -2.54
26,GGUUUGUCUCCAUUCUUAUTT against Pnp,inactive: -0.113

# A different layout for part of the listing above.
row	Sequence	z-score
7	GGAUCAUUAAGACCCAGCATT against 1210002B07Rik	inactive: -2.42
8	GGAUGGCUUGUUUGGACAGTT against Ptprn	inactive: -0.81
9	GGCUUUGAGAUAUGAACAGTT against Arrdc2	inactive: -0.0907
10	GGGACUGCAUACUUAAGUUTT against Amacr	inactive: 0.149

# Further results:

row,Sequence,z-score
1,GCUAUGAGGCUUUGUUCUUTT against 2610511O17Rik,inactive: -0.565
2,GGCUGUCAUCCAAGAACUUTT against Mtcp1,inactive: -2.17
3,GGAAAUCCAACAGCAGAUCTT against Rnf167,inactive: -0.233
4,GCGACUUGUCCUAUUUCGATT against 4732435N03Rik,inactive: 0.068
5,GGAUCCUGCAUAUCUCAAATT against Mrps18c,inactive: 0.201
6,GGGCCUUUUUGAGUACGACTT against Cryaa,inactive: 1.67
7,GGCAUUAAAGUACAGCAUGTT against Immt,inactive: 0.561
8,GGUCUUGGCUGAUUUUAUGTT against Cyp24a1,inactive: 0.657
9,CCAAGCUUAUUGACAAUGATT against Spna1,inactive: -0.376
10,GGGCUUUCCCAGUUCCUAATT against Bmp6,inactive: 1.82
11,GCUGGAAACCCGUAUACUATT against Krt1-23,inactive: -0.209
12,GCAGUAUUGAUAAAAGUACTT against D430039N05Rik,inactive: -0.343
13,GGACACCACGUUCACCAAGTT against Rnpc1,inactive: 0.22
14,GGAUUUGGCUAUAAGGGUUTT against Ppia,inactive: -1.06
15,GCAGUUUGGGAGCCCAAUATT against Slc16a13,inactive: -1.93
16,GGUUCUUACAGCUAUAGAATT against Spo11,inactive: 1.51
17,GGAUCAACUUUGACAAAUATT against Rpl27a,inactive: -3.15
18,GCGAGAGCUUCUGUGAAAATT against Rnase13,inactive: -1.22
19,GCGCGUACAUCUUGUCUCATT against 1110014F12Rik,inactive: -0.524
20,GGAUAUAUACCUAUUCUGATT against Wdr50,inactive: -0.432
21,GGCCAGUCGGAAAAUCUUATT against Atp7b,inactive: 0.851
22,GGCCUUCACGUCUGGAAAUTT against Cnot10,inactive: -1.26
23,GGAAGUCCUGCCAUUUAUATT against Ranbp2,inactive: -2.76
24,GGAAAAUGAGAUCAUGCCCTT against Sdf4,inactive: 0.0489
25,GCCAGUAUGCUGUAUGGCUTT against Bcas3,inactive: 0.521
26,GGACUUUGUUGUAAAGCACTT against Asgr2,inactive: 1.7

# Look-ups from the entries so far:
# Entry for CCAAGCUUAUUGACAAUGATT against Spna1 under z-score: inactive: -0.376
# Entry for CGACCUACUCUACAGCAAATT against B830045N13Rik under z-score: inactive: 1.09
